{"source": "patent US20110152207A1", "about": "“USE OF VITAMIN D GLYCOSIDES AND SULFATES FOR TREATMENT OF DISEASE” (priority 2009, published 2011)", "test": "Hypercalcemic effect: plasma calcium in rats under continuous subcutaneous infusion", "format": "in vivo", "method": "The pumps were filled aseptically with the appropriate dose of drug dissolved in propylene glycol. The pumps were surgically implanted under the skin on the dorsal neck and shoulder area aseptically. On the 12th day of infusion, rats were deeply anesthetized (isofluorane inhalation) and blood was collected by cardiac puncture for plasma calcium determination. The plasma calcium levels were determined by standard methods.", "note": "For at least one compound, name, drawing or mass did not settle the structure."}
{"smiles": "C=C1/C(=C\\C=C2/CCC[C@]3(C)[C@@H]([C@H](C)CCCC(C)(C)O[C@@H]4O[C@H](C(=O)O)[C@@H](O)[C@H](O)[C@H]4O)CC[C@@H]23)C[C@@H](O)C[C@@H]1O", "note": "[β-gluc-1,25-D3, 25-β-glucuronide-1,25-dihydroxyvitamin D3]", "values": [{"measurement": "Significantly greater than control? Duncan's Multiple Range Test", "setting": "14 ng/day", "result": "NO"}, {"measurement": "Significantly greater than control? Duncan's Multiple Range Test", "setting": "70 ng/day", "result": "NO"}]}
